Measured values as given in PubChem BioAssay AID1347423 (Functional Genomics Laboratory (NCATS/FGL), 2020).
Among all 52,000 sequences or so, about 210 (0.4%) were called active.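 How the source made its calls: active means gene whose silencing raises cell survival under the drug, median off-target-corrected z-score across its silencing RNAs 2 or more; inactive means the rest.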 The list shows a part of the results.

Assay: Resistance to Poly (ADP-Ribose) Polymerase inhibitor: Gene Identification via Genome-wide siRNA Screen
Conditions: mouse BRCA2 R2336H ES cells, olaparib, CellTiter-Glo viability; active compounds read high
Outline: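 Mouse BRCA2 R2336H ES cells were reverse-transfected with siRNA (20 nM final), treated at 48 h with 500 nM olaparib, and read by CellTiter-Glo after 72 h. Scores: MAD-based z per siRNA, median per gene, seed off-target correction.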
For GGACCCUUUCUUUGAUAUGTT against Rpe, the z-score was inactive: 0.309.
For GUAACCUGAUUUCCAUUCUTT against Olfr178, the z-score was inactive: 0.716.
For GGACAGGAGGAUUACAACCTT against Rhoj, the z-score was inactive: 0.739.
With “CCGGGAGAUUACAAGUAGCTT against E130309B19Rik” the z-score was inactive: 0.649.
For GGUUUGAACUUCAGCAACUTT against Adam15, the z-score was inactive: -0.891.
With GGAGACAUGGUGAAGAUUUTT against Vav3 the z-score was inactive: -0.305.
With GGACACUAAGGUUCCCAACTT against Polr2j the z-score was inactive: -0.685.
In the case of “GGGAAUCCAAGGAGAGCAUTT against C530009C10Rik”, the z-score was inactive: 0.391.
With “GGGAUGUGUACCGUUACAUTT against 1700010I14Rik” the z-score was inactive: 0.13.
In the case of GGUCUCCUUCUGCUUGAAGTT against Prx, the z-score was inactive: -0.965.
For “GGCUAUGAGGCAAGUCAACTT against 2410003C20Rik”, the z-score was inactive: -1.84.
For CCAAAUUGCUGACUUAUUCTT against Ccna2, the z-score was inactive: 0.232.
In the case of GGCCAUUUGCAUGAUUAUUTT against Tas2r108, the z-score was inactive: -1.93.
In the case of GGAAAAAAGUCCUUGAGUCTT against Plscr3, the z-score was inactive: 0.44.
For GGACAGUGAGGUGAACUUCTT against Enc1, the z-score was inactive: 1.02.
For GCCACGGAAAACAGCGAGATT against Gpr65, the z-score was inactive: -0.00509.
For “GGCAUUAUGUCAUUGCUGATT against 5430428G01Rik”, the z-score was inactive: 0.786.
In the case of GGAGUGAUGUUCAUUCUGGTT against Tm4sf9, the z-score was inactive: -0.00641.
In the case of UGUCGACUGUCAAGAACUATT against Lyzl6, the z-score was inactive: 0.0939.
For GGGUUUUCGGGAGAUCUGUTT against Ltbp4, the z-score was inactive: 3.18.
In the case of GGCAGAAAGCAGAGCUUCUTT against Igfbp3, the z-score was inactive: -0.841.
With CGUACUGGGCCUAUGUUGATT against Nrarp the z-score was inactive: 1.02.
With GCCAAAGUCUUGCUAUGUGTT against Ube1l the z-score was inactive: -1.56.
With CCUUCUGGCCCAGACGAUUTT against Pxmp2 the z-score was inactive: -0.173.
With GCUAUUAUUGCAAUGUCAGTT against Trim38 the z-score was inactive: -0.00296.
With GCUCAGAUGACAAUUUGCCTT against Gbx2 the z-score was inactive: -0.738.
With GGCCUGAAGGGCAUUUACATT against Slc25a11 the z-score was inactive: -0.0765.
With “GCAGGAGGUUCGUGAUAUUTT against 1810010O14Rik” the z-score was inactive: -0.98.
For “GGAUACACACAGAGAAUAUTT against 2810441C07Rik”, the z-score was inactive: 0.02.
For GAGCUUUGUGCUGAACCUGTT against Lgals1, the z-score was inactive: 0.258.
For GCUUUUUUAUGCAUUCCAATT against Rock1, the z-score was inactive: -1.81.
In the case of GGUGUUGUUCACGAGGACCTT against Nol5a, the z-score was inactive: -0.444.
With GCUUAGUGGUGUCAUCUCCTT against Stx1a the z-score was inactive: 0.946.
With GCACCUAACAAGUACUAAATT against Prei3 the z-score was inactive: -1.52.
For GCCUUCAGGAAAAUCACUATT against Olfr849, the z-score was inactive: -0.487.
With GGACAAGGUUGUGUCUGUGTT against Olfr1508 the z-score was inactive: 0.577.
In the case of “GGAGUGAUGUCUUCACUGATT against 4631426E05Rik”, the z-score was inactive: -0.482.
In the case of “CCAAUUUUGUCAUAGGACATT against 1100001H23Rik”, the z-score was inactive: 0.138.
For “GGGACCUACAUUACAAUUUTT against D11Ertd530e”, the z-score was inactive: -0.62.
With CGAAACUUACCAGGAGUCGTT against Ttyh2 the z-score was inactive: 1.92.
With “GGAUCCAUUAGUCAAGAAGTT against 1110020M19Rik” the z-score was inactive: 1.99.
With GGGAUUCCUUCAGCUUACCTT against Gng12 the z-score was inactive: -0.224.
In the case of “CGGCAGCAAUCAUCAGUAGTT against 2700017M01Rik”, the z-score was inactive: 0.362.
With GGAGAAGGAGGUGAUAAUGTT against Sart1 the z-score was inactive: 0.088.
With “GCAAGAAUCAUCCGGUUACTT against 1810054D07Rik” the z-score was inactive: -1.29.
For “GGAUUAGGAUCAGCAGGAUTT against 2610203E10Rik”, the z-score was inactive: -1.62.
For CGUCAAUGCUCACUUAAUUTT against Zfp612, the z-score was inactive: -1.13.
In the case of UUUCGAUCCUUUGAUUGAGTT against Olfr482, the z-score was inactive: 1.03.
For GCUAAAACGAACCACUAUGTT against Abhd9, the z-score was inactive: -0.657.
For GCUAGAAGUCAACAAAUACTT against Timp3, the z-score was inactive: -0.231.
In the case of GCUCAGUUCUCUGUCUUGUTT against Olfr107, the z-score was inactive: -0.627.
In the case of CCAUCAUUGGUGAAUCCCUTT against Gnai1, the z-score was inactive: -0.374.
